Measurements reported in PubChem BioAssay AID493014 (National Center for Advancing Translational Sciences (NCATS), 2011).
This is one part of the list. The main result of the screen is listed elsewhere. These columns were measured beside it and carry no call. The list favours compounds with an active or inconclusive main result. The note in brackets gives the kind of curve behind each potency; many fits are weak.

Assay: qHTS Assay to Find Inhibitors of Chronic Active B-Cell Receptor Signaling
Details: ABC-DLBCL IkBa-CBG/CBR reporter, luminescence ratio (green luciferase fused to IkBa over red control in TMD8 lymphoma cells), 4 h
In short: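 TMD8 human ABC-DLBCL cells with doxycycline-inducible IκBα–green luciferase fusion and unfused red luciferase, in 0.5% FBS medium; compounds up to 46 uM, 4 h at 37C. Green/red luminescence ratio, filter-overlap corrected, fitted to concentration-response curves.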

[1] = measured here: CBR red luminescence, cell number
[2] = measured here: IkBa-CBG green luminescence

CCc1cc(-c2n[nH]c(C)c2Oc2ccc(C(C)C)cc2)c(O)cc1O
AC50 [1]: 32.6 µM [rising, single point]

Cc1ccc(C)c(N2CCN(C(=O)CCC(=O)N3CCOc4ccc(Cl)cc43)CC2)c1
AC50 [1]: 7.08 µM [falling, partial curve]

CCOc1cccc(C(=O)Nc2cnn(Cc3ccccc3)c2)c1
AC50 [1]: 7.94 µM [falling, partial curve]

CN(C)/C=N/c1ncc(C(=O)c2ccc(Cl)cc2)s1
AC50 [1]: 29.1 µM [falling, single point]

COc1ccccc1NC(=O)c1cnc(SCC(=O)N2CCOCC2)n(C)c1=O
AC50 [1]: 2.24 µM [falling, full curve]

COc1ccc(CC(=O)Nc2cccc(C(=O)Nc3ccccc3C(=O)O)c2)cc1OC
AC50 [1]: 10 µM [falling, partial curve]

COc1ccc(N2CCN(C(=O)NC34CC5CC(CC(C5)C3)C4)CC2)cc1
AC50 [1]: 20.6 µM [rising, partial curve, poor fit]

Cc1c(NC(=O)c2cn3ccccc3n2)cccc1-n1cnnn1
AC50 [1]: 2.24 µM [rising, partial curve]

Nc1ccc2c(c1)OC1(CCCC1)O2
AC50 [1]: 0.0891 µM [rising, full curve, poor fit]

CCC(C)N(C(=O)COc1ccccc1C#N)C1CCS(=O)(=O)C1 (stereo unspecified)
AC50 [1]: 18.4 µM [falling, single point]

COc1ccc([C@H]2CC(=O)C=C(c3ccc(C)c(F)c3)C2)cc1
AC50 [1]: 29.1 µM [rising, single point]

COc1ccc2cc(-c3cc(C(=O)O)c4ccccc4n3)ccc2c1
AC50 [1]: 0.1 µM [falling, full curve, poor fit]

CCOC(=O)CSc1nc2nc(C)cc(C)n2n1
AC50 [1]: 0.731 µM [rising, full curve, poor fit]

CC(C)c1ccc(NC(=O)C(=O)c2cn(CC(=O)N3CCCCC3)c3ccccc23)cc1
AC50 [1]: 6.51 µM [falling, single point]

Cn1c(=O)[nH]c(=O)c2c1nc(N1CCOCC1)n2CC(O)COc1ccc2ccccc2c1 (stereo unspecified)
AC50 [1]: 0.731 µM [rising, full curve, poor fit]

COc1ccc(C)cc1COC(=O)c1[nH]c(C)c(C(C)=O)c1C
AC50 [1]: 7.08 µM [falling, partial curve]

CCC(=O)OC1(C)C(=O)C=C2C=C(c3ccsc3)OC=C2C1=O (stereo unspecified)
AC50 [1]: 4.47 µM [rising, single point]

CCOC(=O)c1cc(C)n(-c2ccc(Cl)cc2)c1C
AC50 [1]: 3.55 µM [rising, full curve, poor fit]

COc1ccc(C(C)=O)cc1CC(=O)Nc1cccc(S(=O)(=O)N2CCOCC2)c1
AC50 [1]: 16.4 µM [rising, partial curve, poor fit]

COc1ccc(C2=NN(C(=O)CSc3ncccn3)C(c3cccc(OC)c3OC)C2)cc1 (stereo unspecified)
AC50 [1]: 2 µM [rising, full curve, poor fit]

O=C(CCCOC(=O)c1ccc(O)cc1O)c1ccccc1
AC50 [1]: 0.0461 µM [rising, full curve, poor fit]

COCc1ccc(-c2c(-c3ccsc3)sc3ccccc23)cc1
AC50 [1]: 6.51 µM [rising, partial curve]

O=C(O)c1cccc(S(=O)(=O)N2CCSCC2)c1
AC50 [1]: 5.62 µM [rising, single point]

Cc1ccc(S(=O)(=O)NCC2CCCO2)cc1[N+](=O)[O-] (stereo unspecified)
AC50 [1]: 1.84 µM [rising, partial curve, poor fit]

CCCOc1ccc(C2C(=O)N(C3CCC(C)CC3)CC(=O)N2Cc2cccc(OC)c2)cc1OC (stereo unspecified)
AC50 [1]: 5.62 µM [rising, single point]

COc1ccc(N(CC(=O)N2CCN(c3ccccc3)CC2)S(=O)(=O)c2ccc(C)cc2)cc1
AC50 [1]: 35.5 µM [falling, single point]

CCOC(=O)c1[nH]c2ccccc2c1NC(=S)Nc1cccc(C)c1
AC50 [1]: 29.1 µM [falling, single point]

C=C(C)CNC(=S)N/N=C/c1ccco1
AC50 [2]: 28.2 µM [falling, single point]

COc1ccc(CNc2ccc3c(c2)ncn3-c2ccccc2OC)cc1
AC50 [1]: 7.08 µM [falling, partial curve, poor fit]

CCCOC(=O)c1ccc(NC(=O)c2cc(=O)[nH]c3ccccc23)cc1
AC50 [1]: 2.82 µM [rising, partial curve, poor fit]

CCOc1ccc(S(=O)(=O)NCC2CCCO2)c2ccccc12 (stereo unspecified)
AC50 [1]: 14.1 µM [rising, single point]

O=C(N/N=C/C=C/c1ccccc1)c1cccs1
AC50 [1]: 1.41 µM [falling, full curve]

NC(=O)c1ccnc2c(O)cccc12
AC50 [1]: 32.6 µM [rising, single point]

CCN(CC)S(=O)(=O)c1ccc(Cl)c(NC(=O)COC(=O)c2cccn2C)c1
AC50 [1]: 14.1 µM [falling, single point]

COc1cc(NS(=O)(=O)c2ccc(NC(=S)NC(=O)/C=C/c3ccc(F)cc3)cc2)ncn1
AC50 [1]: 0.631 µM [falling, full curve, poor fit]

CCC/C(=N/NC(=O)c1csc(C)c1C)c1ccc(Cl)s1
AC50 [1]: 0.326 µM [falling, full curve, poor fit]

Nc1nnc(-c2cc3ccccc3oc2=O)s1
AC50 [1]: 9.2 µM [falling, partial curve]

COc1cc2c(cc1OC)C(C(=O)Nc1cc(C)c(OC)c(C)c1)CC(=O)N2 (stereo unspecified)
AC50 [1]: 22.4 µM [rising, single point]

CCOC(=O)c1c(C)oc2ccc(OCC(=O)C(C)(C)C)cc12
AC50 [1]: 1.3 µM [falling, full curve]

C[C@@H]1CN([C@H](C)CO)C(=O)Cc2cc(NC(=O)Cn3cnnn3)ccc2O[C@@H]1CN(C)Cc1ccc(Cl)c(Cl)c1
AC50 [1]: 25.9 µM [falling, single point]

COc1ccccc1OCC(=O)NCc1n[nH]c(=O)c2ccccc12
AC50 [1]: 20.6 µM [falling, single point]

O=c1/c(=C\c2ccc(O)cc2)sc2nc(-c3ccccc3)c(-c3ccccc3)n12
AC50 [1]: 35.5 µM [falling, single point]

O=C(C1CCCCC1)N1CCc2[nH]c3ccc(F)cc3c2C1
AC50 [1]: 35.5 µM [rising, partial curve, poor fit]

CN(c1ccc(C(=O)Nc2ccc(F)cc2F)cc1)S(=O)(=O)c1ccccc1
AC50 [1]: 8.91 µM [falling, partial curve]

CC1(NC(=O)N2CCCCC2)CCS(=O)(=O)C1 (stereo unspecified)
AC50 [1]: 1.58 µM [rising, full curve, poor fit]

Cc1cccc(-n2c(CCCN3C(=O)c4ccccc4C3=O)nc3ccccc3c2=O)n1
AC50 [1]: 14.6 µM [rising, single point]

Cc1oc(-c2cccs2)nc1CN1CCC(CO)(CCOc2ccccc2)CC1
AC50 [1]: 20 µM [rising, single point]

C=CCN(C(=O)Cn1nc(C)n2c(cc3cc(C)ccc32)c1=O)c1ccccc1
AC50 [2]: 12.6 µM [rising, partial curve, poor fit]

CCOc1ccc(Br)cc1S(=O)(=O)Nc1cccc(S(=O)(=O)N(C)c2ccccc2)c1
AC50 [1]: 18.4 µM [falling, single point]

O=C(NC1CCCCCC1)C(=S)NC1CCCCC1
AC50 [1]: 11.2 µM [rising, partial curve, poor fit]

CC1CCc2c(sc(NC(=O)CSc3ncn[nH]3)c2C#N)C1 (stereo unspecified)
AC50 [1]: 12.6 µM [falling, partial curve]

COc1cc(C2N3CC4(C)CN2CC(C)(C3)C4)ccc1O (stereo unspecified)
AC50 [1]: 1.03 µM [falling, full curve, poor fit]

O=C(CNC(=O)c1ccc2ccccc2c1)NC1CCCCC1
AC50 [1]: 23.1 µM [falling, single point]

COc1cccc(-c2nnc(SCc3cccnc3)o2)c1
AC50 [1]: 15.8 µM [falling, partial curve, poor fit]

CCC(CC)c1nnc(NC(=O)[C@@H](NC(=O)c2cccc(C)c2)C(C)C)s1
AC50 [1]: 0.146 µM [rising, full curve, poor fit]

Cc1cc2nc[nH]c2cc1[N+](=O)[O-]
AC50 [1]: 35.5 µM [falling, partial curve, poor fit]

COc1ccc(-c2cc(-c3ccco3)[nH]c(=O)c2C#N)cc1OC
AC50 [2]: 25.1 µM [rising, partial curve, poor fit]

CCC(=O)Nc1cc2nn(-c3ccc(OC)cc3)nc2cc1C
AC50 [1]: 8.91 µM [rising, partial curve]

Cc1noc(C)c1CSc1nc2sc(C)c(C)c2c(=O)n1-c1ccccc1
AC50 [1]: 0.517 µM [rising, full curve, poor fit]

COc1ccccc1/C=C/C(=O)NCCc1ccccn1
AC50 [1]: 1 µM [falling, full curve]

CC(C)c1ccc(C2=NN(c3ccccc3)C(=O)CC2)cc1
AC50 [1]: 9.2 µM [rising, partial curve]

Cc1ccc(-c2cc(C(=O)N/N=C\c3cnn(C)c3C)c3ccccc3n2)cc1C
AC50 [1]: 0.146 µM [rising, full curve, poor fit]

CCOC(=O)N1CCN(C(=O)CS(=O)(=O)c2cn(Cc3cccc(F)c3)c3ccccc23)CC1
AC50 [1]: 16.4 µM [falling, single point]
AC50 [2]: 25.9 µM [rising, partial curve, poor fit]

CC1CC2(CCCCC2)Nc2c1ccc1ccccc21 (stereo unspecified)
AC50 [1]: 16.4 µM [rising, partial curve]

Cc1cccc(OCCCC(=O)NCC(=O)Nc2cccc(C)c2C)c1
AC50 [1]: 7.08 µM [falling, partial curve, poor fit]
